Experimental data: publication PMC7703752, “Proteome-level assessment of origin, prevalence and function of leucine-aspartic acid (LD) motifs” (Bioinformatics, 2019)
These are yes or no findings as the source states them, for the method shown.

Columns and labels:
[1] = molecular target: T1, RALGAPA2 LD motif peptide, FITC-Ahx-labelled (human); experiment: condition: GIT1 up to 630 μM (start of the MST dilution series); fluorescence polarisation + MST; 'additional DA and MST experiments' with GIT1: GIT1 serially diluted (MST from 630 μM, standard capillaries, 25 °C), FITC-Ahx peptide 0.1 μM; 20 mM HEPES pH 7.5, 150 mM NaCl, 2 mM EDTA, 2 mM DTT, Tween-20; both purified
T1 sequence (peptide, FITC-Ahx on the N-terminus): GDDVLDKLLENIGHT

[2] = molecular target: T2, NCOA2 LD motif peptide, FITC-Ahx-labelled (human); experiment: as above
T2 sequence (peptide, FITC-Ahx on the N-terminus): SELDNLEEILDDLQNSQ

B1: rat GIT1 (647-770) (domain or fragment, UniProt Q9Z272 647-770)
chain: GLPSTEDVILKTEQVTKNIQELLRAAQEFKHDSFVPCSEKIHLAVTEMASLFPKRPALEPVRSSLRLLNASAYRLQSECRKTVPPEPGAPVDFQLLTQQVIQCAYDIAKAAKQLVTITTREKKQ
With B1 as the binder, how does the binding [1] read?
Its binding is “no binding”.

And the binding [2]?
The binding was “no binding”.
